# Some of the results follow.
# What was measured:
# Assay in all cases: glycan array binding signal (z-score within array); higher = stronger binding
# Conditions in all cases: glycan notation: IUPAC condensed, linker removed
# Gal3S6S(b1-4)GlcNAc = molecular target: Gal3S6S(b1-4)GlcNAc
# Outline: (§1)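 Arrays were curated from the Consortium for Functional Glycomics database, 3228 in total, and kept only where the protein sequence was available. Binding is expressed as a within-array Z-score. This score was averaged across arrays of the same protein sequence at different concentrations or buffers and across linkers, and negative values can be read as non-binding.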
# Gal3S6S(b1-4)GlcNAc6S = molecular target: Gal3S6S(b1-4)GlcNAc6S
# Outline: as §1
# Gal4S(b1-4)GlcNAc = molecular target: Gal4S(b1-4)GlcNAc
# Outline: as §1
# Gal4S6S(b1-4)GlcNAc = molecular target: Gal4S6S(b1-4)GlcNAc
# Outline: as §1
# Gal6P(b1-4)GlcNAc = molecular target: Gal6P(b1-4)GlcNAc
# Outline: as §1
# Gal6S(b1-3)GlcNAc = molecular target: Gal6S(b1-3)GlcNAc
# Outline: as §1
# Gal6S(b1-3)GlcNAc6S = molecular target: Gal6S(b1-3)GlcNAc6S
# Outline: as §1
# Gal6S(b1-4)Glc = molecular target: Gal6S(b1-4)Glc
# Outline: as §1
# Gal6S(b1-4)Glc6S = molecular target: Gal6S(b1-4)Glc6S
# Outline: as §1
# Gal6S(b1-4)GlcNAc = molecular target: Gal6S(b1-4)GlcNAc
# Outline: as §1
# Gal6S(b1-4)GlcNAc6S = molecular target: Gal6S(b1-4)GlcNAc6S
# Outline: as §1
# GalNAc(a1-3)Gal = molecular target: GalNAc(a1-3)Gal
# Outline: as §1
# GalNAc(a1-3)GalNAc = molecular target: GalNAc(a1-3)GalNAc
# Outline: as §1
# [1] = molecular target: GalNAc(a1-3)GalNAc(b1-3)Gal(a1-4)Gal(b1-4)Glc
# Outline: as §1
# [2] = molecular target: GalNAc(a1-3)GalNAc(b1-3)Gal(a1-4)Gal(b1-4)GlcNAc
# Outline: as §1
# GalNAc(b1-3)Gal = molecular target: GalNAc(b1-3)Gal
# Outline: as §1
# [3] = molecular target: GalNAc(b1-3)Gal(a1-4)Gal(b1-4)GlcNAc
# Outline: as §1
# [4] = molecular target: GalNAc(b1-3)Gal(a1-4)Gal(b1-4)GlcNAc(b1-3)Gal(b1-4)Glc
# Outline: as §1
# [5] = molecular target: GalNAc(b1-3)Gal(a1-6)Gal(b1-4)Glc
# Outline: as §1
# GalNAc(b1-3)GalNAc = molecular target: GalNAc(b1-3)GalNAc
# Outline: as §1
# GalNAc(b1-3)GlcNAc = molecular target: GalNAc(b1-3)GlcNAc
# Outline: as §1
# GalNAc(b1-4)Gal(b1-4)Glc = molecular target: GalNAc(b1-4)Gal(b1-4)Glc
# Outline: as §1
# GalNAc(b1-4)GlcNAc = molecular target: GalNAc(b1-4)GlcNAc
# Outline: as §1
# [6] = molecular target: GalNAc(b1-4)GlcNAc(b1-2)Man
# Outline: as §1
# [7] = molecular target: GalNAc(b1-4)GlcNAc(b1-2)Man(a1-3)[GalNAc(b1-4)GlcNAc(b1-2)Man(a1-6)]Man(b1-4)GlcNAc(b1-4)GlcNAc
# Outline: as §1
# [8] = molecular target: GalNAc(b1-4)GlcNAc(b1-3)GalNAc(b1-4)GlcNAc
# Outline: as §1
# GalNAc(b1-4)GlcNAc6S = molecular target: GalNAc(b1-4)GlcNAc6S
# Outline: as §1
# GalNAc(b1-6)GalNAc = molecular target: GalNAc(b1-6)GalNAc
# Outline: as §1
# GalNAc3S(b1-4)GlcNAc = molecular target: GalNAc3S(b1-4)GlcNAc
# Outline: as §1
# GalNAc3S(b1-4)GlcNAc3S = molecular target: GalNAc3S(b1-4)GlcNAc3S
# Outline: as §1
# [9] = molecular target: GalNAc3S(b1-4)[Fuc(a1-3)]GlcNAc
# Outline: as §1
# GalNAc4S6S(b1-4)GlcNAc = molecular target: GalNAc4S6S(b1-4)GlcNAc
# Outline: as §1
# GalNAc6S(b1-4)GlcNAc = molecular target: GalNAc6S(b1-4)GlcNAc
# Outline: as §1
# Glc(a1-4)Glc = molecular target: Glc(a1-4)Glc
# Outline: as §1
# [10] = molecular target: Glc(a1-4)Glc(a1-4)Glc(a1-4)Glc
# Outline: as §1
# Glc(a1-6)Glc(a1-6)Glc = molecular target: Glc(a1-6)Glc(a1-6)Glc
# Outline: as §1
# [11] = molecular target: Glc(a1-6)Glc(a1-6)Glc(a1-6)Glc
# Outline: as §1
# Glc(b1-4)Glc = molecular target: Glc(b1-4)Glc
# Outline: as §1
binder,measurement,setting,value
SynCAM (Mus musculus) (protein) MASAVLPSGSQCAAAAAVAAAAAPPGLRLRLLLLLLSAAALIPTGDGQNLFTKDVTVIEGEVATISCQVNKSDDSVIQLLNPNRQTIYFRDFRPLKDSRFQLLNFSSSELKVSLTNVSISDEGRYFCQLYTDPPQESYTTITVLVPPRNLMIDIQKDTAVEGEEIEVNCTAMASKPATTIRWFKGNKELKGKSEVEEWSDMYTVTSQLMLKVHKEDDGVPVICQVEHPAVTGNLQTQRYLEVQYKPQVHIQMTYPLQGLTREGDAFELTCEAIGKPQPVMVTWVRVDDEMPQHAVLSGPNLFINNLNKTDNGTYRCEASNIVGKAHSDYMLYVYDPPTTIPPP,glycan array binding signal (z-score),Gal3S6S(b1-4)GlcNAc,2.56
same,glycan array binding signal (z-score),Gal3S6S(b1-4)GlcNAc6S,2.69
same,glycan array binding signal (z-score),Gal4S(b1-4)GlcNAc,0.837
same,glycan array binding signal (z-score),Gal4S6S(b1-4)GlcNAc,-0.455
same,glycan array binding signal (z-score),Gal6P(b1-4)GlcNAc,-0.555
same,glycan array binding signal (z-score),Gal6S(b1-3)GlcNAc,0.58
same,glycan array binding signal (z-score),Gal6S(b1-3)GlcNAc6S,-0.219
same,glycan array binding signal (z-score),Gal6S(b1-4)Glc,-0.141
same,glycan array binding signal (z-score),Gal6S(b1-4)Glc6S,1.69
same,glycan array binding signal (z-score),Gal6S(b1-4)GlcNAc,0.766
same,glycan array binding signal (z-score),Gal6S(b1-4)GlcNAc6S,0.137
same,glycan array binding signal (z-score),GalNAc(a1-3)Gal,-0.173
same,glycan array binding signal (z-score),GalNAc(a1-3)GalNAc,1.08
same,glycan array binding signal (z-score),[1],-0.146
same,glycan array binding signal (z-score),[2],-0.889
same,glycan array binding signal (z-score),GalNAc(b1-3)Gal,-0.352
same,glycan array binding signal (z-score),[3],2.45
same,glycan array binding signal (z-score),[4],-0.598
same,glycan array binding signal (z-score),[5],-0.163
same,glycan array binding signal (z-score),GalNAc(b1-3)GalNAc,-0.452
same,glycan array binding signal (z-score),GalNAc(b1-3)GlcNAc,-0.132
same,glycan array binding signal (z-score),GalNAc(b1-4)Gal(b1-4)Glc,-0.187
same,glycan array binding signal (z-score),GalNAc(b1-4)GlcNAc,2.71
same,glycan array binding signal (z-score),[6],0.118
same,glycan array binding signal (z-score),[7],-0.617
same,glycan array binding signal (z-score),[8],-0.925
same,glycan array binding signal (z-score),GalNAc(b1-4)GlcNAc6S,-0.392
same,glycan array binding signal (z-score),GalNAc(b1-6)GalNAc,0.335
same,glycan array binding signal (z-score),GalNAc3S(b1-4)GlcNAc,-0.566
same,glycan array binding signal (z-score),GalNAc3S(b1-4)GlcNAc3S,0.408
same,glycan array binding signal (z-score),[9],-0.316
same,glycan array binding signal (z-score),GalNAc4S6S(b1-4)GlcNAc,-0.215
same,glycan array binding signal (z-score),GalNAc6S(b1-4)GlcNAc,-0.096
same,glycan array binding signal (z-score),Glc(a1-4)Glc,-0.476
same,glycan array binding signal (z-score),[10],0.087
same,glycan array binding signal (z-score),Glc(a1-6)Glc(a1-6)Glc,-1.23
same,glycan array binding signal (z-score),[11],-0.37
same,glycan array binding signal (z-score),Glc(b1-4)Glc,-0.753

# 2 records drawn at random from the list so far, as already listed:
binder,measurement,setting,value
SynCAM (Mus musculus) (protein) MASAVLPSGSQCAAAAAVAAAAAPPGLRLRLLLLLLSAAALIPTGDGQNLFTKDVTVIEGEVATISCQVNKSDDSVIQLLNPNRQTIYFRDFRPLKDSRFQLLNFSSSELKVSLTNVSISDEGRYFCQLYTDPPQESYTTITVLVPPRNLMIDIQKDTAVEGEEIEVNCTAMASKPATTIRWFKGNKELKGKSEVEEWSDMYTVTSQLMLKVHKEDDGVPVICQVEHPAVTGNLQTQRYLEVQYKPQVHIQMTYPLQGLTREGDAFELTCEAIGKPQPVMVTWVRVDDEMPQHAVLSGPNLFINNLNKTDNGTYRCEASNIVGKAHSDYMLYVYDPPTTIPPP,glycan array binding signal (z-score),[9],-0.316
same,glycan array binding signal (z-score),GalNAc6S(b1-4)GlcNAc,-0.096

# Reference: the supplement of paper PMC8728848
